Assay results taken from publication PMC8983240.

Amino acid sequences for entries named in this document (tags omitted).
UniProt P17302: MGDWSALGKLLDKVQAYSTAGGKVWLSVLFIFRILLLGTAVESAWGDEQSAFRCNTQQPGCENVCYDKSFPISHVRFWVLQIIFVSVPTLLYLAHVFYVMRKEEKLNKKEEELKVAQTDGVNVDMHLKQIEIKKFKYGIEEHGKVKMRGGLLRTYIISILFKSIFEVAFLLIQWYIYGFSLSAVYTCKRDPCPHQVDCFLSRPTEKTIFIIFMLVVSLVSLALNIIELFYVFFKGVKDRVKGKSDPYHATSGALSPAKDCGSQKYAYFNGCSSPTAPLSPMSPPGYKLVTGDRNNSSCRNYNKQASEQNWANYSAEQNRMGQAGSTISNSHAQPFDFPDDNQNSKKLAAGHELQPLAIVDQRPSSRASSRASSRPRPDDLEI
UniProt Q93008: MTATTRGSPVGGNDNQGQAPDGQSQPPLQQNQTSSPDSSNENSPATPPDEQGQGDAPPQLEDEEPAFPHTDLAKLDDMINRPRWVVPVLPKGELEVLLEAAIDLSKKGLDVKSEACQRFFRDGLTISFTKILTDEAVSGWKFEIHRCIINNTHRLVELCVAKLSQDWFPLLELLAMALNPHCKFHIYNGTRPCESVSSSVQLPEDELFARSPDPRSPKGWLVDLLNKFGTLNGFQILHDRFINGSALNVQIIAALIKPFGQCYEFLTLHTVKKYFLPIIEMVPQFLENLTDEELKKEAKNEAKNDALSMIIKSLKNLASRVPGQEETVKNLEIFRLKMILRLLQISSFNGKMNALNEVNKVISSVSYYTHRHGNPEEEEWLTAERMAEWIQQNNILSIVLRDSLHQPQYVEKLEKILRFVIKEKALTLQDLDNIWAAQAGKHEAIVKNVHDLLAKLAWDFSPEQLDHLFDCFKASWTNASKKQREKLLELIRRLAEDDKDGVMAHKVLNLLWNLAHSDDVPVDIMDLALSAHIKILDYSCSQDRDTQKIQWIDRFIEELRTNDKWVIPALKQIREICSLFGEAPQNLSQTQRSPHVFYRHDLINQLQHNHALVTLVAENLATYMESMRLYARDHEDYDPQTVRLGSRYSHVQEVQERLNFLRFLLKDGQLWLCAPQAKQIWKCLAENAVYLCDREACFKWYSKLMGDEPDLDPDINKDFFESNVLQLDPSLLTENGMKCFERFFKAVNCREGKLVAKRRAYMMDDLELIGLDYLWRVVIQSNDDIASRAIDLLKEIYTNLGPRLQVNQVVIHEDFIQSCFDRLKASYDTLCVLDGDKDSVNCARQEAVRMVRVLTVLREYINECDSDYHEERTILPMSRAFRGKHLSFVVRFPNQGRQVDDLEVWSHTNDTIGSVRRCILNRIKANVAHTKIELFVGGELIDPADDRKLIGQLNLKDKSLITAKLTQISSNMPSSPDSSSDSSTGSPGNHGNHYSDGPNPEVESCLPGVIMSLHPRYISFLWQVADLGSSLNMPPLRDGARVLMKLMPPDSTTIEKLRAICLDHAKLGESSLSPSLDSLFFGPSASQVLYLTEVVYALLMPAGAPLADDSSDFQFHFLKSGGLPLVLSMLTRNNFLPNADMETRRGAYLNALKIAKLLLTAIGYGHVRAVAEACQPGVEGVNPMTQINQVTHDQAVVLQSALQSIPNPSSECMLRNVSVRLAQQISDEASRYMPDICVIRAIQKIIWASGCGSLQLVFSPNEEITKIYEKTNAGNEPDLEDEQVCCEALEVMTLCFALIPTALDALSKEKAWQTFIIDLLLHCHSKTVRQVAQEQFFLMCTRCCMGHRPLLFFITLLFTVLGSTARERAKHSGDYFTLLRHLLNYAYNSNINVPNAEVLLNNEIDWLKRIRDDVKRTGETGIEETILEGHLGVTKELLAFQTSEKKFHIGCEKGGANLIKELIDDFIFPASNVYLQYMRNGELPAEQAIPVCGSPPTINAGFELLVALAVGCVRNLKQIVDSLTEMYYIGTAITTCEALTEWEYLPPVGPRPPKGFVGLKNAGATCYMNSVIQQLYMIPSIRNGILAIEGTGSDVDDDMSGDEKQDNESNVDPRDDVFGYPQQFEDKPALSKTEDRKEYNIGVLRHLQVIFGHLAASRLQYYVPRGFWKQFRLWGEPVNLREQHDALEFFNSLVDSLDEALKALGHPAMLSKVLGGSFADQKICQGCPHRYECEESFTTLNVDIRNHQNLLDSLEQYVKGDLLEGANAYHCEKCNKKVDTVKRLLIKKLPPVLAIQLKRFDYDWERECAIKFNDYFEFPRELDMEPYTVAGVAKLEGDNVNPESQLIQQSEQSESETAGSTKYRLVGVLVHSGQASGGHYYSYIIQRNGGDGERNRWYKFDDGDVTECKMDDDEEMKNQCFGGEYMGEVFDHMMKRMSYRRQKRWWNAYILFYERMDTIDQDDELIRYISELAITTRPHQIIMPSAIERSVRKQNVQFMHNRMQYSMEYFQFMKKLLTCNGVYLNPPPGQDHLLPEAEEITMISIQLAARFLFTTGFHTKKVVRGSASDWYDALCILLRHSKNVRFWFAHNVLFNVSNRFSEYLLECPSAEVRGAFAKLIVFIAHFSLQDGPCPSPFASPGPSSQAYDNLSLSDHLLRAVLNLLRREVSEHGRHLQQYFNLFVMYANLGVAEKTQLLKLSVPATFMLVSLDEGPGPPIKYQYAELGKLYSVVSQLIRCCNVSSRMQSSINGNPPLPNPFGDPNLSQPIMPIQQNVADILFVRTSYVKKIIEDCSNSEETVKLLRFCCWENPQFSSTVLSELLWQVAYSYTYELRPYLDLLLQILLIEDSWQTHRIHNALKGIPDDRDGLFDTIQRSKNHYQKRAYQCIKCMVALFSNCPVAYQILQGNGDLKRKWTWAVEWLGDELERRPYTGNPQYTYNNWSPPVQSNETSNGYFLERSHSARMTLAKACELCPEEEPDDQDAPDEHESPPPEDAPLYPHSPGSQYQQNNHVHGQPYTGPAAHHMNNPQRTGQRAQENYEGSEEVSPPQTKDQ

Target: Connexin 43 with a 3x Flag tag (Cx43-Flag) (UniProt P17302)
Assay: affinity purification with mass spectrometry; extracts of ligament fibroblasts stably expressing Cx43-Flag precleared with IgG and protein A-G beads, anti-Flag antibody overnight at 4°C, eluted with Flag peptides, SDS-PAGE, bands excised, trypsin, LC-MS

In the case of “Ubiquitin-specific protease 9 X-chromosome (USP9X) (from UniProt Q93008 1-2554) (enzyme)”, the binding is reported as “binds”.

These are yes or no findings as the source states them, for the method shown. Binding seen in cells or lysates may run through a third protein. These calls come from enrichment with a bait or labelling near it, and not all partners need be listed.
